Experimental data published in the supplement of paper PMC11732987, “Enantioselective OTUD7B fragment discovery through chemoproteomics screening and high-throughput optimisation” (Communications Chemistry, 2025).
Some of the results follow. The data scatter; read single values as rough.

By UniProt entry, the sequences of proteins in these tests, tags left out. Where a name states a change or a piece, a line headed by the entry shows the natural chain unless it says otherwise. Residues count along the entry.
UniProt P17812, 173-193: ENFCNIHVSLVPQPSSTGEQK
UniProt Q9UHI6: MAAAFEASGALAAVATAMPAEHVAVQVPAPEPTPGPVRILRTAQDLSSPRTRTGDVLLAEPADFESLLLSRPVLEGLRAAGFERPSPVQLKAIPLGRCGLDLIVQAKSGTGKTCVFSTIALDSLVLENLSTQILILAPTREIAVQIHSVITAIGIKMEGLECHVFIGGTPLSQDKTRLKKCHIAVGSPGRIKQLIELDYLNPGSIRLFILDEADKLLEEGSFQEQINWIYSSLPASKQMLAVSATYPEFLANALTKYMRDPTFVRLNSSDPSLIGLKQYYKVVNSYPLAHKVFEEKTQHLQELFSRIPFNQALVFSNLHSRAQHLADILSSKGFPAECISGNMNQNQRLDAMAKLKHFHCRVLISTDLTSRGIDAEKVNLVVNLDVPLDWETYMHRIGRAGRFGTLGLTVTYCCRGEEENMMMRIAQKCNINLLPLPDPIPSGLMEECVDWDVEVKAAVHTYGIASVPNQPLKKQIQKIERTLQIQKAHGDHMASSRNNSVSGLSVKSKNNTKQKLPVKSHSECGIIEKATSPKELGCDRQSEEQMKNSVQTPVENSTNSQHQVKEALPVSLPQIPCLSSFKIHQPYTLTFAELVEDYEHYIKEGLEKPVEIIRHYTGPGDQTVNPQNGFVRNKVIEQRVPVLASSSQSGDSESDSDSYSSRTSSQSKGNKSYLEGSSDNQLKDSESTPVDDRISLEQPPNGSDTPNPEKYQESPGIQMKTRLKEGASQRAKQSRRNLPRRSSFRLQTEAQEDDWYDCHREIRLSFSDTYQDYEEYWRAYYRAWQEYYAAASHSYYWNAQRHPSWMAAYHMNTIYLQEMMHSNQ
UniProt Q9UJW0, 38-64: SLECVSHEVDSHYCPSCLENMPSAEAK
UniProt Q9GZR7: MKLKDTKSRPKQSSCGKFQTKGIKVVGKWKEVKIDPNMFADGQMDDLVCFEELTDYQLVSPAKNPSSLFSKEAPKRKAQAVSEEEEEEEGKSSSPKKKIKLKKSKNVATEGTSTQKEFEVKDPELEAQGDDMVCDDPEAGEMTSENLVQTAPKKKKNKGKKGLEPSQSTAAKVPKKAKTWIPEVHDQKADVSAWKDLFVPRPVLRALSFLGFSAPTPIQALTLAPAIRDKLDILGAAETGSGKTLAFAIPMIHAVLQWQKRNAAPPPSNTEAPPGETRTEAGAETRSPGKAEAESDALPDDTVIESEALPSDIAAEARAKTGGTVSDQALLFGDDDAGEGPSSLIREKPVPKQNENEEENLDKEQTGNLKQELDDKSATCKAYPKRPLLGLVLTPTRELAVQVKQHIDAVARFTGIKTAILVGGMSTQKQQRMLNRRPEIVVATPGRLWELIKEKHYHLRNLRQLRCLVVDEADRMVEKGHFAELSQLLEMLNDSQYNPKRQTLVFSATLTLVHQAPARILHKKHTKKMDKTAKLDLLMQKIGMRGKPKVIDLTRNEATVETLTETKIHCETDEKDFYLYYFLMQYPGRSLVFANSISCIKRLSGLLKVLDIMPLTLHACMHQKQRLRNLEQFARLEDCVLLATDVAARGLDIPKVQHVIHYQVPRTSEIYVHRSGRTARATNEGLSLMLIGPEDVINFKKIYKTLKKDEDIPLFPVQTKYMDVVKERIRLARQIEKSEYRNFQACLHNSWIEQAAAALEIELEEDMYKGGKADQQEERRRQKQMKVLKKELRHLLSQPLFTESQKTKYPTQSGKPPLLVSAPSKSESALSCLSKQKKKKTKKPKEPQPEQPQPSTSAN
UniProt O75935, 129-148: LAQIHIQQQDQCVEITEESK
UniProt O75534: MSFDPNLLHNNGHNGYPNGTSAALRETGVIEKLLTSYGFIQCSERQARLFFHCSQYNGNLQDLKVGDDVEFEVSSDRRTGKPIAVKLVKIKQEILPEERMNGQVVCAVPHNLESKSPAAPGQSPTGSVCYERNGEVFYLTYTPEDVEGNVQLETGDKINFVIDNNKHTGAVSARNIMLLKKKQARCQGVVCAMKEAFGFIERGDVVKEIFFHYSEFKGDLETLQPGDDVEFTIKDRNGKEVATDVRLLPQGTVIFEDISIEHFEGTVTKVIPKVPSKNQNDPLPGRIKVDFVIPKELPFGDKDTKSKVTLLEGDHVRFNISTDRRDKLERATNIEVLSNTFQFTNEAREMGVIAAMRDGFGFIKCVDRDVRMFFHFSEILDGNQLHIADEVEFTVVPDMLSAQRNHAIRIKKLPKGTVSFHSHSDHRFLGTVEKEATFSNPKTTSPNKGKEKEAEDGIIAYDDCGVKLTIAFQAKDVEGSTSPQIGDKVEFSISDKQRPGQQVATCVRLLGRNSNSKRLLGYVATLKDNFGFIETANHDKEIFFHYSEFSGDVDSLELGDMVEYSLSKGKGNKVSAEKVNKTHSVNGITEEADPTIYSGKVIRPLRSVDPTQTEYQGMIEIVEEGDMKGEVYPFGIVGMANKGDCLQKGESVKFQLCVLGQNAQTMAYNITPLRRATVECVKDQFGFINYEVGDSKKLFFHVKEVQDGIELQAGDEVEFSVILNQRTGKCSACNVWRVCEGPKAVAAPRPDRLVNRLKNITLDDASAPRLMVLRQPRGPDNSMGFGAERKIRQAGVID
UniProt Q69YN2: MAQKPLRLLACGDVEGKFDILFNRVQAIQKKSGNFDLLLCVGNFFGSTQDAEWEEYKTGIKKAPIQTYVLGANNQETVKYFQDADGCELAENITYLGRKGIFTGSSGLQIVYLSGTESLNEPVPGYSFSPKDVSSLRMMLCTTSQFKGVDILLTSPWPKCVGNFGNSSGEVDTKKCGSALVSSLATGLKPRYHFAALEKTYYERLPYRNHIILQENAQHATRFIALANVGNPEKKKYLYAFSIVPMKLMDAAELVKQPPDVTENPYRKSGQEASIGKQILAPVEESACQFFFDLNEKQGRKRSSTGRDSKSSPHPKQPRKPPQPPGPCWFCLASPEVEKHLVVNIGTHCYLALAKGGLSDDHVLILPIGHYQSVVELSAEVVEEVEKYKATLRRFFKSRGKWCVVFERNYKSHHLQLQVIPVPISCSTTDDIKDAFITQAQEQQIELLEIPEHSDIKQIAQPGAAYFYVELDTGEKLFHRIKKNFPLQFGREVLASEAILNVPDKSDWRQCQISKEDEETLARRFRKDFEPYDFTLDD
UniProt Q8TB03: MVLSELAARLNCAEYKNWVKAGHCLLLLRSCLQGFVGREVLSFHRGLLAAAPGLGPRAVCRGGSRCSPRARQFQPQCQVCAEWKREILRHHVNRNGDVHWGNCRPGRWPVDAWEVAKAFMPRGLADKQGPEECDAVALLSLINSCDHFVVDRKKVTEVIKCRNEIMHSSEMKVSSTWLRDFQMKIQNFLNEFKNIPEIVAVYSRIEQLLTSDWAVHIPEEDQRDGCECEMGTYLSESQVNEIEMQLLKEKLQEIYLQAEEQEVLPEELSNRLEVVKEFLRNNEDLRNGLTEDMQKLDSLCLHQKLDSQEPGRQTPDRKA
UniProt Q68DQ2: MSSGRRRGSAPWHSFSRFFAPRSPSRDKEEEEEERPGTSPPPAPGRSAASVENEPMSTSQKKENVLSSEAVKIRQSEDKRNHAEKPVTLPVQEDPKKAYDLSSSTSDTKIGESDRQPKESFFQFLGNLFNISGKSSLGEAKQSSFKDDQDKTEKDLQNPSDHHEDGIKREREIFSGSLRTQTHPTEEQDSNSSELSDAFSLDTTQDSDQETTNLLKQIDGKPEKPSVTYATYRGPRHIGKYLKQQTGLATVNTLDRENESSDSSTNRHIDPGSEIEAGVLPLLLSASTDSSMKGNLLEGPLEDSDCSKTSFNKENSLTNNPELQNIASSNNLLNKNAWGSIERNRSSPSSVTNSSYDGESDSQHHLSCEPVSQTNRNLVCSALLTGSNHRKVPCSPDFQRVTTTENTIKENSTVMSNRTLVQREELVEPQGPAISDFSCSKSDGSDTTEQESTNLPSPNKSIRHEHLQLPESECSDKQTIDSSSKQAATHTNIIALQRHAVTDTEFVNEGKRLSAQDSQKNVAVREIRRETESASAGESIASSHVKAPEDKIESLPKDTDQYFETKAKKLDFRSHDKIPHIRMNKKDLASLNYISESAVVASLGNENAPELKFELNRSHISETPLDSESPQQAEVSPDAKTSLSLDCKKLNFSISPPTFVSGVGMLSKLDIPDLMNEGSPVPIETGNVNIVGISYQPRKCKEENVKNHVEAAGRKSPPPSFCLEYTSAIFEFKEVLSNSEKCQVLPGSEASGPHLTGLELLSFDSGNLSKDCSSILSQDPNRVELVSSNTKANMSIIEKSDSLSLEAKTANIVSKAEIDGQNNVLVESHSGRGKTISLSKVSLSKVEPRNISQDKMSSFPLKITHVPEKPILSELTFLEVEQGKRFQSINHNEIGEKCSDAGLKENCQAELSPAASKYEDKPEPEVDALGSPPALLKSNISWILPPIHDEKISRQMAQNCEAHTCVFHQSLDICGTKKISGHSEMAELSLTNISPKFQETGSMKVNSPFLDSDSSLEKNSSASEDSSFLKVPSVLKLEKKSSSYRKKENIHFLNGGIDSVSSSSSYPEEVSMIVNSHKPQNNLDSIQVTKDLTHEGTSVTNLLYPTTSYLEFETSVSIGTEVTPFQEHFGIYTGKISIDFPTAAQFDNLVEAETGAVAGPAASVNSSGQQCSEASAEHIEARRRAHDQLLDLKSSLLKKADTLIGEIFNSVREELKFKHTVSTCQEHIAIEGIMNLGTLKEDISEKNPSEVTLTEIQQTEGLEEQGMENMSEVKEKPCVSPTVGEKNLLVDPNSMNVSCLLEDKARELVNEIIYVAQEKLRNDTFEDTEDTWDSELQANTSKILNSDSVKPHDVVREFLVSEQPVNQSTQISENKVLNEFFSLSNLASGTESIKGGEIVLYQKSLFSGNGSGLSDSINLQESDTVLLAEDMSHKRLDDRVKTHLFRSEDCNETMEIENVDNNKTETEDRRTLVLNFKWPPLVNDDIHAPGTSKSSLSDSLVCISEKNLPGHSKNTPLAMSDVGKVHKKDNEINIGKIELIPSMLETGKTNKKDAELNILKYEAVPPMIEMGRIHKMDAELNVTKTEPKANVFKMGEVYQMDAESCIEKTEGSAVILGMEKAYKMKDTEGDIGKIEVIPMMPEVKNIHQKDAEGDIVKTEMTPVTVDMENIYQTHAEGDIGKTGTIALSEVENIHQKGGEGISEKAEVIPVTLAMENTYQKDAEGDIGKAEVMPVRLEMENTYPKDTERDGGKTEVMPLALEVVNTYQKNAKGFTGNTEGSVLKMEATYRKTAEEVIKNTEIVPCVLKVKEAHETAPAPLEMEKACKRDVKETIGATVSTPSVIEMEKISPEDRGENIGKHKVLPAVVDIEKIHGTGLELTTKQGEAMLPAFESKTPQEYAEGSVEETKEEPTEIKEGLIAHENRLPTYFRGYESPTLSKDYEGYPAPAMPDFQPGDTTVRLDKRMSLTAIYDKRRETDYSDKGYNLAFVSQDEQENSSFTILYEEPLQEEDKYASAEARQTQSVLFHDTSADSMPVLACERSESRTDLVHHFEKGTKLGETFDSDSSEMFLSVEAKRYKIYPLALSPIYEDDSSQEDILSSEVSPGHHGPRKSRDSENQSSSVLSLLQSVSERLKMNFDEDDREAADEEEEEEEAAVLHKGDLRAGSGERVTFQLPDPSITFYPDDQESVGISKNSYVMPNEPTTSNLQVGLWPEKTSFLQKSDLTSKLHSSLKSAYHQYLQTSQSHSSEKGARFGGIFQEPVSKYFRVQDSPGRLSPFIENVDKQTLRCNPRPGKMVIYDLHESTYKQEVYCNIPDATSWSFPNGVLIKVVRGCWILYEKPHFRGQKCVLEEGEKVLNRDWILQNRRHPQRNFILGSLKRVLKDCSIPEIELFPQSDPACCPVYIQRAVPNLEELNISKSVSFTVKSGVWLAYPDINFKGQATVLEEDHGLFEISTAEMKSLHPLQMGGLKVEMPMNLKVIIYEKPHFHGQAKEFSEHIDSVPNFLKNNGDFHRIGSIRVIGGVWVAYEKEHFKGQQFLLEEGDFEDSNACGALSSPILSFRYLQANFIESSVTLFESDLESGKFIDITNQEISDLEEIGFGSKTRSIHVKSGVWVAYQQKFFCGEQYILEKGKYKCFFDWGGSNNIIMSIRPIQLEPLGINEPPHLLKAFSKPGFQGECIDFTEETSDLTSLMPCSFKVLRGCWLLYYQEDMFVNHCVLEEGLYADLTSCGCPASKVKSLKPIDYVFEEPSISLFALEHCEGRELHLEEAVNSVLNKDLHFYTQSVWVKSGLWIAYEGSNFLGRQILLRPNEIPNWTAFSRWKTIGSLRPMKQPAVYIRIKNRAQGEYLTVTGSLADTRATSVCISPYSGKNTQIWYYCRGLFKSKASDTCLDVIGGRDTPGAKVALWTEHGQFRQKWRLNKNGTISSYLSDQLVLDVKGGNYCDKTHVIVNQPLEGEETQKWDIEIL

Legend:
[1] = compound: ClCC(=O)N[C@@H]1CCCc2ccccc12; test: log2 mean competition ratio of IA-DTB cysteine labelling (DMSO/compound) (log2 ratio); higher = stronger cysteine engagement by compound; conditions: treatment time: 4 h, cell line lysate: HEK293T
Procedure: (§1)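 IA-DTB competitive cysteine chemoproteomics in HEK293T RIPA lysate. Lysates were treated with compound 29 or 30 at 50 or 200 µM for 4 h, then IA-DTB (500 µM, 1 h), trypsin-digested, NeutrAvidin-enriched and analysed by diaPASEF. Competition ratio = intensity DMSO / intensity compound (n=4 treated, n=64 DMSO); binding: mean log2 CR ≥ 1 and p ≤ 0.05 plus QC filters. Target is the cysteine site.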

[2] = compound: ClCC(=O)N[C@H]1CCCc2ccccc12; test: as above; conditions: treatment time: 4 h, cell line lysate: HEK293T
Procedure: as §1

## CYFIP2 C427 (UniProt Q96F07)
[1]; 50 µM
  log2 mean competition ratio: -0.15
[1]; 200 µM
  log2 mean competition ratio: -0.207
[2]; 50 µM
  log2 mean competition ratio: -0.239
[2]; 200 µM
  log2 mean competition ratio: -0.109

## CTTNBP2 C307
[1]; 50 µM
  log2 mean competition ratio: -0.116
[1]; 200 µM
  log2 mean competition ratio: -0.274

## DAP3 C98 (UniProt P51398)
[1]; 50 µM
  log2 mean competition ratio: 0.39
[1]; 200 µM
  log2 mean competition ratio: 0.236
[2]; 50 µM
  log2 mean competition ratio: -0.0657
[2]; 200 µM
  log2 mean competition ratio: 0.0609

## CTU1 C237 (UniProt Q7Z7A3)
[1]; 50 µM
  log2 mean competition ratio: -0.03
[1]; 200 µM
  log2 mean competition ratio: 0.218
[2]; 50 µM
  log2 mean competition ratio: 0.105
[2]; 200 µM
  log2 mean competition ratio: 0.146

## CTPS1 C176 (UniProt P17812)
[1]; 50 µM
  log2 mean competition ratio: 0.422
[1]; 200 µM
  log2 mean competition ratio: 0.118
[2]; 50 µM
  log2 mean competition ratio: 0.397
[2]; 200 µM
  log2 mean competition ratio: 0.125

## CUL2 C232 (UniProt Q13617)
[1]; 50 µM
  log2 mean competition ratio: -0.546
[1]; 200 µM
  log2 mean competition ratio: 0.0463
[2]; 50 µM
  log2 mean competition ratio: -0.259
[2]; 200 µM
  log2 mean competition ratio: -0.153

## DCAF13 C120 (UniProt Q9NV06)
[1]; 50 µM
  log2 mean competition ratio: 0.374
[1]; 200 µM
  log2 mean competition ratio: -0.581
[2]; 50 µM
  log2 mean competition ratio: 0.372
[2]; 200 µM
  log2 mean competition ratio: -0.191

## DDX20 C338 (UniProt Q9UHI6)
[1]; 50 µM
  log2 mean competition ratio: 0.169
[1]; 200 µM
  log2 mean competition ratio: -0.165
[2]; 50 µM
  log2 mean competition ratio: 0.172
[2]; 200 µM
  log2 mean competition ratio: -0.28

## CREBBP C398 (UniProt Q92793)
[1]; 50 µM
  log2 mean competition ratio: 0.642
[1]; 200 µM
  log2 mean competition ratio: -0.233
[2]; 50 µM
  log2 mean competition ratio: 0.523
[2]; 200 µM
  log2 mean competition ratio: -0.385

## CTTNBP2NL C352 (UniProt Q9P2B4)
[1]; 50 µM
  log2 mean competition ratio: -0.108
[1]; 200 µM
  log2 mean competition ratio: 0.049
[2]; 50 µM
  log2 mean competition ratio: -0.196
[2]; 200 µM
  log2 mean competition ratio: 0.0989

## DDX46 C501
[1]; 50 µM
  log2 mean competition ratio: -0.209
[1]; 200 µM
  log2 mean competition ratio: -0.202
[2]; 50 µM
  log2 mean competition ratio: 0.3
[2]; 200 µM
  log2 mean competition ratio: -0.103

## DCTN4_(C41,C41,C51,C51,C54,C54) (UniProt Q9UJW0)
[1]; 50 µM
  log2 mean competition ratio: -0.269
[1]; 200 µM
  log2 mean competition ratio: 0.184
[2]; 50 µM
  log2 mean competition ratio: -0.018
[2]; 200 µM
  log2 mean competition ratio: -0.453

## DAB2IP C404 (UniProt Q5VWQ8)
[1]; 50 µM
  log2 mean competition ratio: -0.0568
[1]; 200 µM
  log2 mean competition ratio: 0.0505
[2]; 50 µM
  log2 mean competition ratio: -0.559
[2]; 200 µM
  log2 mean competition ratio: -0.144

## DDX24 C639 (UniProt Q9GZR7)
[1]; 50 µM
  log2 mean competition ratio: -0.23
[1]; 200 µM
  log2 mean competition ratio: 0.243
[2]; 50 µM
  log2 mean competition ratio: -0.104
[2]; 200 µM
  log2 mean competition ratio: -0.0683

## DDX20 C758 (UniProt Q9UHI6)
[1]; 50 µM
  log2 mean competition ratio: 0.00149
[1]; 200 µM
  log2 mean competition ratio: 0.0553
[2]; 50 µM
  log2 mean competition ratio: -0.164
[2]; 200 µM
  log2 mean competition ratio: 0.0518

## CYP39A1 C461
[1]; 50 µM
  log2 mean competition ratio: -0.0832
[1]; 200 µM
  log2 mean competition ratio: 0.514
[2]; 50 µM
  log2 mean competition ratio: 0.156
[2]; 200 µM
  log2 mean competition ratio: 0.334

## CUL5 C188 (UniProt Q93034)
[1]; 50 µM
  log2 mean competition ratio: 0.111
[1]; 200 µM
  log2 mean competition ratio: -0.44
[2]; 50 µM
  log2 mean competition ratio: 0.0512
[2]; 200 µM
  log2 mean competition ratio: -0.29

## DCTD C40
[1]; 50 µM
  log2 mean competition ratio: -0.000254
[1]; 200 µM
  log2 mean competition ratio: 0.226
[2]; 50 µM
  log2 mean competition ratio: -0.401
[2]; 200 µM
  log2 mean competition ratio: 0.0178

## CUL7 C828 (UniProt Q14999)
[1]; 50 µM
  log2 mean competition ratio: -0.184
[1]; 200 µM
  log2 mean competition ratio: -0.0199
[2]; 50 µM
  log2 mean competition ratio: -0.433
[2]; 200 µM
  log2 mean competition ratio: -0.0333

## CTTNBP2 C1225
[1]; 50 µM
  log2 mean competition ratio: -0.27
[1]; 200 µM
  log2 mean competition ratio: 0.18
[2]; 50 µM
  log2 mean competition ratio: -0.175
[2]; 200 µM
  log2 mean competition ratio: 0.0622

## DDX5 C200 (UniProt P17844)
[1]; 50 µM
  log2 mean competition ratio: -0.308
[1]; 200 µM
  log2 mean competition ratio: -0.347
[2]; 50 µM
  log2 mean competition ratio: 0.378
[2]; 200 µM
  log2 mean competition ratio: 0.0625

## DCTN3 C140 (UniProt O75935)
[1]; 50 µM
  log2 mean competition ratio: -0.176
[1]; 200 µM
  log2 mean competition ratio: -0.0583
[2]; 50 µM
  log2 mean competition ratio: -0.0509
[2]; 200 µM
  log2 mean competition ratio: -0.343

## CSDE1 C106 (UniProt O75534)
[1]; 50 µM
  log2 mean competition ratio: 0.179
[1]; 200 µM
  log2 mean competition ratio: -0.00939
[2]; 50 µM
  log2 mean competition ratio: -0.0361
[2]; 200 µM
  log2 mean competition ratio: -0.256

## CWF19L1 C160 (UniProt Q69YN2)
[1]; 50 µM
  log2 mean competition ratio: -0.0296
[1]; 200 µM
  log2 mean competition ratio: -0.38
[2]; 50 µM
  log2 mean competition ratio: 0.429
[2]; 200 µM
  log2 mean competition ratio: -0.0211

## DDX5 C221 (UniProt P17844)
[1]; 50 µM
  log2 mean competition ratio: -0.4
[1]; 200 µM
  log2 mean competition ratio: -0.039
[2]; 50 µM
  log2 mean competition ratio: 0.0609
[2]; 200 µM
  log2 mean competition ratio: -0.139

## CSK C411 (UniProt P41240)
[1]; 50 µM
  log2 mean competition ratio: 0.0361
[1]; 200 µM
  log2 mean competition ratio: 0.137
[2]; 50 µM
  log2 mean competition ratio: -0.147
[2]; 200 µM
  log2 mean competition ratio: -0.0187

## DCUN1D1 C115
[1]; 50 µM
  log2 mean competition ratio: -0.123
[1]; 200 µM
  log2 mean competition ratio: -0.335
[2]; 50 µM
  log2 mean competition ratio: 0.107
[2]; 200 µM
  log2 mean competition ratio: -0.317

## DDR2 C580 (UniProt Q16832)
[1]; 50 µM
  log2 mean competition ratio: -0.278
[1]; 200 µM
  log2 mean competition ratio: 0.676
[2]; 50 µM
  log2 mean competition ratio: -0.731
[2]; 200 µM
  log2 mean competition ratio: -0.258

## CRYZ C45 (UniProt Q08257)
[1]; 50 µM
  log2 mean competition ratio: 0.441
[1]; 200 µM
  log2 mean competition ratio: 0.0425
[2]; 50 µM
  log2 mean competition ratio: 0.334
[2]; 200 µM
  log2 mean competition ratio: -0.0313

## CXorf38 C161 (UniProt Q8TB03)
[1]; 50 µM
  log2 mean competition ratio: 0.376
[1]; 200 µM
  log2 mean competition ratio: 0.0835
[2]; 50 µM
  log2 mean competition ratio: 0.425
[2]; 200 µM
  log2 mean competition ratio: 0.000594

## CYFIP1 C98
[1]; 50 µM
  log2 mean competition ratio: 0.00897
[1]; 200 µM
  log2 mean competition ratio: 0.00925
[2]; 50 µM
  log2 mean competition ratio: -0.25
[2]; 200 µM
  log2 mean competition ratio: -0.0655

## CYB5B C119
[1]; 50 µM
  log2 mean competition ratio: 0.142
[1]; 200 µM
  log2 mean competition ratio: 0.151
[2]; 50 µM
  log2 mean competition ratio: 0.257
[2]; 200 µM
  log2 mean competition ratio: 0.357

## DDX39A C164 (UniProt O00148)
[1]; 50 µM
  log2 mean competition ratio: 0.242
[1]; 200 µM
  log2 mean competition ratio: -0.229
[2]; 50 µM
  log2 mean competition ratio: 0.33
[2]; 200 µM
  log2 mean competition ratio: -0.212

## CTDP1 C95 (UniProt Q9Y5B0)
[1]; 50 µM
  log2 mean competition ratio: 0.0841
[1]; 200 µM
  log2 mean competition ratio: 0.0298
[2]; 50 µM
  log2 mean competition ratio: 0.521
[2]; 200 µM
  log2 mean competition ratio: 0.183

## CTPS2 C216 (UniProt Q9NRF8)
[1]; 50 µM
  log2 mean competition ratio: 0.0637
[1]; 200 µM
  log2 mean competition ratio: 0.0866
[2]; 50 µM
  log2 mean competition ratio: -0.0162
[2]; 200 µM
  log2 mean competition ratio: 0.273

## DDX51 C338 (UniProt Q8N8A6)
[1]; 50 µM
  log2 mean competition ratio: -0.0601
[1]; 200 µM
  log2 mean competition ratio: 0.163
[2]; 50 µM
  log2 mean competition ratio: -0.23
[2]; 200 µM
  log2 mean competition ratio: 0.121

## DDX39A C238 (UniProt O00148)
[1]; 50 µM
  log2 mean competition ratio: 0.141
[1]; 200 µM
  log2 mean competition ratio: 0.0524
[2]; 50 µM
  log2 mean competition ratio: -0.039
[2]; 200 µM
  log2 mean competition ratio: 0.0419

## DDX46 C590
[1]; 50 µM
  log2 mean competition ratio: -0.253
[1]; 200 µM
  log2 mean competition ratio: -0.11
[2]; 50 µM
  log2 mean competition ratio: -0.161
[2]; 200 µM
  log2 mean competition ratio: -0.297

## CRYBG3 C439 (UniProt Q68DQ2)
[1]; 50 µM
  log2 mean competition ratio: -0.375
[1]; 200 µM
  log2 mean competition ratio: -0.437
[2]; 50 µM
  log2 mean competition ratio: 0.146
[2]; 200 µM
  log2 mean competition ratio: -0.326

## CXXC1 C549 (UniProt Q9P0U4)
[1]; 50 µM
  log2 mean competition ratio: -0.149
[1]; 200 µM
  log2 mean competition ratio: 0.111
[2]; 50 µM
  log2 mean competition ratio: -0.0356
[2]; 200 µM
  log2 mean competition ratio: -0.028

## CUL1 C291 (UniProt Q13616)
[1]; 50 µM
  log2 mean competition ratio: -0.103
[1]; 200 µM
  log2 mean competition ratio: -0.304
[2]; 50 µM
  log2 mean competition ratio: 0.191
[2]; 200 µM
  log2 mean competition ratio: -0.237

## DDX10 C295 (UniProt Q13206)
[1]; 50 µM
  log2 mean competition ratio: -0.188
[1]; 200 µM
  log2 mean competition ratio: 0.25
[2]; 50 µM
  log2 mean competition ratio: 0.0941
[2]; 200 µM
  log2 mean competition ratio: 0.0979
